Assay results published in paper PMC7549001.
No constants are given. Whether binding was seen depends on the method and setting. Binding seen in cells or lysates may run through a third protein. Some binding calls cover weakened binding; strength is not graded here.

Chains of the proteins cited; added tags and fusions are not shown.
UniProt P09396: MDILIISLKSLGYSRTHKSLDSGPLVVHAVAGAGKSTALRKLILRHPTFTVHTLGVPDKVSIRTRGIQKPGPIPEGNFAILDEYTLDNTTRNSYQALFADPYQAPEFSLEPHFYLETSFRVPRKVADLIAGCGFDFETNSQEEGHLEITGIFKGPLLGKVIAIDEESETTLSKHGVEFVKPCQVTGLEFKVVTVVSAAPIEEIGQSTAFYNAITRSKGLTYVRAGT
UniProt P05804: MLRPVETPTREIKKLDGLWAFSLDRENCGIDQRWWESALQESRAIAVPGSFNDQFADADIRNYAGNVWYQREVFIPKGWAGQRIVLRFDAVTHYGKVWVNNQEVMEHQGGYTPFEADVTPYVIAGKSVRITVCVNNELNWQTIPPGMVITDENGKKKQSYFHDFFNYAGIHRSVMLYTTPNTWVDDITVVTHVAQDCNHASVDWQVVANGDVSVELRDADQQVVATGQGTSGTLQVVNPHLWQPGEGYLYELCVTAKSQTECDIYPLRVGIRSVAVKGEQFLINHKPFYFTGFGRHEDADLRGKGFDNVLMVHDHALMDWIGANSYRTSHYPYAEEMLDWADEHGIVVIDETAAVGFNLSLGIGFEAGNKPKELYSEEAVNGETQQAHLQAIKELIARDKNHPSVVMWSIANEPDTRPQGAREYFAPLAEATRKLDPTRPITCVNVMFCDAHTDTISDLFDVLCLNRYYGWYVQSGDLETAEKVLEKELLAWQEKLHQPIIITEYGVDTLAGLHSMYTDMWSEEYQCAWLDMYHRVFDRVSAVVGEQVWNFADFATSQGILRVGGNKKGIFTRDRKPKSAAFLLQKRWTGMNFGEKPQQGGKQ

Assays:
[1] = molecular target: P25 as BiFC fusion (P25-nYFP and P25-cYFP) (potato virus X) (UniProt P09396); assay: split reporter; BiFC with halves of YFP; agroinfiltration of H2B-RFP transgenic N. benthamiana leaves; fluorescence at 72 hr postinfiltration
[2] = molecular target: β-glucuronidase (GUS) as BiFC fusion (GUS-cYFP and GUS-nYFP) (UniProt P05804); assay: as above

Substance | binding [1] | binding [2]
β-glucuronidase (GUS) as BiFC fusion (GUS-cYFP and GUS-nYFP) (from UniProt P05804 1-603) (enzyme) | no binding | 
P25 as BiFC fusion (P25-nYFP and P25-cYFP) (from UniProt P09396 1-226) | binds | no binding
